Patent US20020197224A1, “Method of colouring hair” (Unilever Home & Personal Care USA, Division of Conopco, Inc., priority 2001, published 2002)

Assay: Dyeing of hair switches with TGase substrate, permanent colour change by chromameter
Set-up: species or system human
Details: blonde hair, four applications, after boiling water wash

Texas Red-Cadaverine [TRC]
Total colour change (ΔE) (pre-treatment none, 10 mM DTT): 29.6 | Total colour change (ΔE) (pre-treatment none, no DTT): 22.6 | Total colour change (ΔE) (pre-treatment persulphate, 10 mM DTT): 26.7 | Total colour change (ΔE) (pre-treatment persulphate, no DTT): 29.0
